The numbers were not newly measured in patent US7872041B2, “Use of rotigotine for treating and preventing Parkinson's plus syndrome” (priority 2004, dated 2011), which cites them from elsewhere.

For the data set the following is noted: Wenning et al, Lancet 2004; bromocriptine trial with six patients, lisuride controlled trial; cited from earlier work.

In the case of `CCN(CC)C(=O)N[C@H]1C=C2c3cccc4[nH]cc(c34)C[C@H]2N(C)C1` [lisuride], the “Therapeutic efficacy in Parkinson's plus syndrome” value is “no efficacy”.
